Results deposited as PubChem BioAssay AID743456 (Peter MacCallum Cancer Centre, 2014).

- Assay: 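Identify miRNAs tied to vorinostat resistance or sensitivity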 (primary screen)
- System: human HCT116-VR colon cancer cells, a vorinostat-resistant HCT116 line
- Reagents: miRNA mimic
- Timing: about 3 days from transfection to readout; drug present for the last 24 h
- Conditions: vorinostat at 2.5 µM final for 24 h
- Measured: 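Per-well live-cell protease fluorescence and caspase luminescence under 2.5 µM vorinostat for 24 h, scored as robust z-scores and against mock transfection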
- Scale: viability robust z-score: higher = more viable cells; caspase robust z-score: higher = more caspase activity, more apoptosis
- Hit rule: 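a mimic counts as active if it lands in a lowered-viability class or a caspase-activation class; wells with too few cells without drug are left out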
Shown is an unselected part of 878 deposited reagents. Of all reagents, 27 (3.1%) were called active. 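27 mimics are marked active, unlike an earlier stated count of 24; the viability threshold is described inconsistently.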 Not all columns of the deposit are shown. Reagent sequences are not shown. The record does not give: the amount of reagent.

hsa-miR-634 | viability robust z-score: -3.87; caspase robust z-score: 2.67; viability hit class: reduced viability; caspase hit class: no change; outcome: active
hsa-miR-768-5p | viability robust z-score: -0.38; caspase robust z-score: -0.41; viability hit class: no change; caspase hit class: no change; outcome: inactive
hsa-miR-30c | viability robust z-score: 0.38; caspase robust z-score: -0.56; viability hit class: no change; caspase hit class: no change; outcome: inactive
hsa-miR-34b | viability robust z-score: -0.31; caspase robust z-score: -0.42; viability hit class: no change; caspase hit class: no change; outcome: inactive
hsa-miR-708* | viability robust z-score: 0.82; caspase robust z-score: 0.52; viability hit class: no change; caspase hit class: no change; outcome: inactive
hsa-miR-150* | viability robust z-score: 0.66; caspase robust z-score: -0.4; viability hit class: no change; caspase hit class: no change; outcome: inactive

Reprinted from the listing (2 entries):
hsa-miR-768-5p | viability robust z-score: -0.38; caspase robust z-score: -0.41; viability hit class: no change; caspase hit class: no change; outcome: inactive
hsa-miR-30c | viability robust z-score: 0.38; caspase robust z-score: -0.56; viability hit class: no change; caspase hit class: no change; outcome: inactive

The list goes on.
hsa-miR-20a* | viability robust z-score: 0.9; caspase robust z-score: -0.03; viability hit class: no change; caspase hit class: no change; outcome: inactive
hsa-miR-621 | viability robust z-score: 0.04; caspase robust z-score: 0.68; viability hit class: no change; caspase hit class: no change; outcome: inactive
hsa-miR-941 | viability robust z-score: 0.34; caspase robust z-score: -0.62; viability hit class: no change; caspase hit class: no change; outcome: inactive
hsa-miR-25* | viability robust z-score: -2.03; caspase robust z-score: -0.82; viability hit class: no change; caspase hit class: no change; outcome: inactive
hsa-miR-220c | viability robust z-score: -1.5; caspase robust z-score: 0.9; viability hit class: no change; caspase hit class: no change; outcome: inactive
hsa-miR-146a* | viability robust z-score: 0.88; caspase robust z-score: -0.44; viability hit class: no change; caspase hit class: no change; outcome: inactive
